Experimental data: PMC5833424
These are yes or no findings as the source states them, for the method shown. Binding seen in cells or lysates may run through a third protein.

Molecular target: Smad3 (human (endogenous in ccRCC cell lines)), P84022
Assay: co-IP; co-IP testing Smad2 against Smad3 in the PIM1/Smad complex (Supplementary Figure 2A and B); precipitating antibody not given; protein G-Sepharose beads, overnight at 4 °C
Conditions: remark: other sources report otherwise

B1: Smad2, Q15796 1-467 (protein)
chain: MSSILPFTPPVVKRLLGWKKSAGGSGGAGGGEQNGQEEKWCEKAVKSLVKKLKKTGRLDELEKAITTQNCNTKCVTIPSTCSEIWGLSTPNTIDQWDTTGLYSFSEQTRSLDGRLQVSHRKGLPHVIYCRLWRWPDLHSHHELKAIENCEYAFNLKKDEVCVNPYHYQRVETPVLPPVLVPRHTEILTELPPLDDYTHSIPENTNFPAGIEPQSNYIPETPPPGYISEDGETSDQQLNQSMDTGSPAELSPTTLSPVNHSLDLQPVTYSEPAFWCSIAYYELNQRVGETFHASQPSLTVDGFTDPSNSERFCLGLLSNVNRNATVEMTRRHIGRGVRLYYIGGEVFAECLSDSAIFVQSPNCNQRYGWHPATVCKIPPGCNLKIFNNQEFAALLAQSVNQGFEAVYQLTRMCTIRMSFVKGWGAEYRRQTVTSTPCWIELHLNGPLQWLDKVLTQMGSPSVRCSSMS
  binding: no binding
